Experimental data published in article PMC12920906.
No constants are given. Whether binding was seen depends on the method and setting. Binding seen in cells or lysates may run through a third protein. Some results given as binding are weak or reduced against the parent protein; the word gives no strength.

Biological target: T1, MRE11 (UniProt P49959)
T1 sequence: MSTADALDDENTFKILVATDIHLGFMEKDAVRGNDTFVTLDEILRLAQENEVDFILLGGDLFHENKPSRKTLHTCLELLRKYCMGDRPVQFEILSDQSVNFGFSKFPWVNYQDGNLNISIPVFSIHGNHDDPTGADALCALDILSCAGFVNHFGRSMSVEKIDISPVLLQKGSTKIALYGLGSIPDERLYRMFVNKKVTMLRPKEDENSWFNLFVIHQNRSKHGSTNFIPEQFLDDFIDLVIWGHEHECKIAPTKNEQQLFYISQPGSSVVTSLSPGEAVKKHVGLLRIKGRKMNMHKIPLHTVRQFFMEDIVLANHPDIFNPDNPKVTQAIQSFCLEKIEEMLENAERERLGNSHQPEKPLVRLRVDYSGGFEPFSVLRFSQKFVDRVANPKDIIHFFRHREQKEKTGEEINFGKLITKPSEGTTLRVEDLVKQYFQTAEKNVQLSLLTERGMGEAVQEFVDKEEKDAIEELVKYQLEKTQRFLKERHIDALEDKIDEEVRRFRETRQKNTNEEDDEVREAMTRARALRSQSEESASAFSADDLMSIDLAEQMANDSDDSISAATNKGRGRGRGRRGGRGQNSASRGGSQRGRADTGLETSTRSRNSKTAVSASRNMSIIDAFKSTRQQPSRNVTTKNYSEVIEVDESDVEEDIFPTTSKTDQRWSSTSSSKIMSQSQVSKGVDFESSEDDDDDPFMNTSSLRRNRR
Experiment: co-IP; Polk immunoprecipitated and blotted for MRE11, and the reverse co-IP (MRE11 immunoprecipitated, blotted for Polk); cells not named in the main text

B1: DNA polymerase kappa (protein, UniProt Q9UBT6 1-870)
chain: MDSTKEKCDSYKDDLLLRMGLNDNKAGMEGLDKEKINKIIMEATKGSRFYGNELKKEKQVNQRIENMMQQKAQITSQQLRKAQLQVDRFAMELEQSRNLSNTIVHIDMDAFYAAVEMRDNPELKDKPIAVGSMSMLSTSNYHARRFGVRAAMPGFIAKRLCPQLIIVPPNFDKYRAVSKEVKEILADYDPNFMAMSLDEAYLNITKHLEERQNWPEDKRRYFIKMGSSVENDNPGKEVNKLSEHERSISPLLFEESPSDVQPPGDPFQVNFEEQNNPQILQNSVVFGTSAQEVVKEIRFRIEQKTTLTASAGIAPNTMLAKVCSDKNKPNGQYQILPNRQAVMDFIKDLPIRKVSGIGKVTEKMLKALGIITCTELYQQRALLSLLFSETSWHYFLHISLGLGSTHLTRDGERKSMSVERTFSEINKAEEQYSLCQELCSELAQDLQKERLKGRTVTIKLKNVNFEVKTRASTVSSVVSTAEEIFAIAKELLKTEIDADFPHPLRLRLMGVRISSFPNEEDRKHQQRSIIGFLQAGNQALSATECTLEKTDKDKFVKPLEMSHKKSFFDKKRSERKWSHQDTFKCEAVNKQSFQTSQPFQVLKKKMNENLEISENSDDCQILTCPVCFRAQGCISLEALNKHVDECLDGPSISENFKMFSCSHVSATKVNKKENVPASSLCEKQDYEAHPKIKEISSVDCIALVDTIDNSSKAESIDALSNKHSKEECSSLPSKSFNIEHCHQNSSSTVSLENEDVGSFRQEYRQPYLCEVKTGQALVCPVCNVEQKTSDLTLFNVHVDVCLNKSFIQELRKDKFNPVNQPKESSRSTGSSSGVQKAVTRTKRPGLMTKYSTSKKIKPNNPKHTLDIFFK
B1 was tested, and the binding was “binds”.
